Screening data, single-dose tests

Sequences of proteins named here, by UniProt entry; tags and fusion partners are left off. Residues count along the entry.
UniProt Q4DA54, 1-478: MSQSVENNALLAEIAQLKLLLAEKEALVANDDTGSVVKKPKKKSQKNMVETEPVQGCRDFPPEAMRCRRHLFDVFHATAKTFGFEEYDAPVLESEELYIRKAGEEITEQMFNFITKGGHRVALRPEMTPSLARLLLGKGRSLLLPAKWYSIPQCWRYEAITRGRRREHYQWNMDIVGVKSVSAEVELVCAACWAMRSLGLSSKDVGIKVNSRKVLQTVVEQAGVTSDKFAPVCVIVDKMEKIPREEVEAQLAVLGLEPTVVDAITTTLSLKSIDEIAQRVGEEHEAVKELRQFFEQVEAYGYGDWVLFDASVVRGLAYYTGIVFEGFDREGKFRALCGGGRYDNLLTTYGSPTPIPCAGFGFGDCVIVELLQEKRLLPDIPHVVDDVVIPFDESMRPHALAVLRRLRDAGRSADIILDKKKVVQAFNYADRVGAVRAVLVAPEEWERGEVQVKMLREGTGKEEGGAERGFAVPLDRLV

From ChEMBL document CHEMBL3988442, “University of Dundee, Small-Polar-MMV Screening Library” (2021).

Values are the deposited “Percent Effect”, in %.
The record does not define 0% and 100%; most values in the screen are far below 50% and negative numbers occur (in some assays of this library far below -100).
This is an unselected part of the compounds tested.

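Enzyme assay of histidyl-tRNA synthetase; the read-out is not stated. Target: Histidine-tRNA ligase, Trypanosoma cruzi CL Brener (UniProt Q4DA54). Tested at 30 µM. The record gives no direction; compounds that gave an IC50 in retests scored well above the rest, so higher reads as stronger inhibition. About 69,000 compounds were tested under these conditions; 0.045% (about 31) showed 50% or more at least once.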

{"smiles": "O=C(CS(=O)(=O)C1CCCC1)NC1CCc2nccn2C1", "stereo": "centres undefined", "percent effect": 5}
{"smiles": "COc1c(C)cnc(CSc2nnc(N)s2)c1C", "percent effect": 11.67}
{"smiles": "Cc1c(C(=O)NCCC2CN(C)CCO2)n(C)c2c(C)cccc12", "stereo": "centres undefined", "percent effect": 11.06}
{"smiles": "CCS(=O)(=O)N1CCC2(CN(C(=O)c3cscn3)C2)C1", "percent effect": 1.149}
{"smiles": "CCN(CC(=O)NC(C)(C)C)Cc1cccc2c1OCCO2", "percent effect": -22.62}
{"smiles": "Cc1c[nH]nc1C1CCN(S(=O)(=O)N(C)C)C1", "stereo": "centres undefined", "percent effect": 2.996}
{"smiles": "CCn1cc(S(=O)(=O)Nc2ccc3[nH]c(C4CCC4)nc3c2)cn1", "percent effect": 5.952}
{"smiles": "Cn1cccc1C(=O)N1CC[C@H]2[C@@H]1CCC(=O)N2c1ccccc1", "percent effect": 1.075}
{"smiles": "O=C(NC[C@H]1OC[C@@H](NCc2ccccn2)[C@@H]1O)N1CCOCC1", "percent effect": -1.087}
{"smiles": "CCc1ccc(CN2CCC3(CC(C(=O)NCC(C)C)=NO3)C2)o1", "stereo": "centres undefined", "percent effect": 7.778}
{"smiles": "COc1ccc(CN2CCC(C(N)=O)C2)c(Br)c1OC", "stereo": "centres undefined", "percent effect": 8.808}
{"smiles": "Cc1ccc(C(=O)N2CC[C@@H]3CN(C4CCOCC4)CCO[C@@H]3C2)o1", "percent effect": 7.538}
{"smiles": "CN(CC(=O)Nc1cnn(-c2ccccc2S(C)(=O)=O)c1)C1CC1", "percent effect": 5.155}
{"smiles": "COC(=O)C1CCN(C(=O)c2nnc3ccc(C)cc3n2)CC1", "percent effect": 2.212}
{"smiles": "Cc1cnn(CC2CCCN2Cc2noc(CC(C)C)n2)c1", "stereo": "centres undefined", "percent effect": 4.507}
{"smiles": "Cc1cc(C)n(CC2CCCN2C(=O)c2cncnc2C)n1", "stereo": "centres undefined", "percent effect": 3.207}
{"smiles": "Cc1ccc(CN2CC[C@@H]3OCCN(S(C)(=O)=O)[C@H]3CC2)s1", "percent effect": 4.444}
{"smiles": "Cc1noc(Cl)c1CC(=O)NCC(C)(O)c1ccc(F)cc1F", "stereo": "centres undefined", "percent effect": -1.064}
{"smiles": "Cc1cccc(CN2CCCC(c3nccs3)C2)n1", "stereo": "centres undefined", "percent effect": 11.11}
{"smiles": "CCN1C[C@@H]2[C@@H](OC)CCN(C(=O)Cc3ccsc3)[C@@H]2C1", "percent effect": 8.738}
{"smiles": "Cc1cc(C(=O)NCCC(=O)N2CCCc3ccccc32)no1", "percent effect": 6.077}
{"smiles": "CC(=O)N1CCOC(c2cncc(CCC(=O)N(C)C)n2)C1", "stereo": "centres undefined", "percent effect": 10.77}
{"smiles": "Cc1cccc(-c2ccc(C(=O)NCC3CCCOC3)c(=O)[nH]2)c1", "stereo": "centres undefined", "percent effect": 5.814}
{"smiles": "CCOc1ccnc(N2CCN(C(=O)CCc3cnn(C)c3)CC2)n1", "percent effect": 3.061}
{"smiles": "O=C(Cc1csc(-c2ccco2)n1)N1CCN(c2cnccn2)CC1", "percent effect": 5.639}
{"smiles": "COc1ccc(CN2C[C@@H]3CN(Cc4cccnc4)CCO[C@@H]3C2)cc1", "percent effect": 2.941}
{"smiles": "CN1CCOC[C@H]1c1nc(-c2cccc(F)c2)c[nH]1", "percent effect": 10.89}
{"smiles": "COCCN(C)[C@@H]1c2ccccc2C2(CCNCC2)[C@H]1O", "percent effect": 0}
{"smiles": "CNCC(=O)N[C@H]1CN(c2nc(C)c3c(n2)CCCC3)C[C@@H]1C1CC1", "percent effect": 0}
{"smiles": "Cc1ccnn1CCC(=O)N1CCCC2(C1)NC(=O)c1ccccc1O2", "stereo": "centres undefined", "percent effect": 6.061}
{"smiles": "O=C(CCN1CCc2c(ncn2C2CC2)C1)NC1CCCC1", "percent effect": 4.274}
{"smiles": "CCC1CN(Cc2cccc(C(=O)N(C)C)c2)CCN1CCOC", "stereo": "centres undefined", "percent effect": 7.345}
{"smiles": "CC(C)(O)CSCCNC(=O)c1cc(F)ccc1F", "percent effect": 5.464}
{"smiles": "CC1=CC(C)(C)N(CN2C(=O)c3ccccc3C2=O)c2ccc(C)cc21", "percent effect": -12.77}
{"smiles": "CC(=O)N1CCOC2(CCCN(C(=O)c3ccc(Cl)cc3)C2)C1", "stereo": "centres undefined", "percent effect": 1.961}
{"smiles": "O=C(c1ccc(F)c(F)c1)N1CCC[C@]2(C[C@@H](OCC3CC3)CO2)C1", "percent effect": 7.843}
{"smiles": "CC(C)=CCN1CCN(Cc2cc(C)c(O)c(C)c2)CC1CCO", "stereo": "centres undefined", "percent effect": -1.064}
{"smiles": "Cc1ccc(CN2CCOC3(CCN(C(=O)C4CCOC4)CC3)C2)cc1", "stereo": "centres undefined", "percent effect": 3.226}
{"smiles": "Cc1c[nH]c(C(=O)N2C[C@H]3CC[C@@H]2CN(Cc2cscn2)C3)n1", "percent effect": 2.424}
{"smiles": "Cc1noc(C)c1CC(=O)N1CCCN(C)c2ccc(Cl)cc21", "percent effect": 10.89}
{"smiles": "CN(CCO)Cc1cc(Cl)ccc1OCC(O)CN1CCCCCC1", "stereo": "centres undefined", "percent effect": 38.31}
{"smiles": "CCCOc1ccc(CNc2cncc(-n3cccn3)n2)cc1", "percent effect": 10.86}
{"smiles": "CC(NC(=O)NCc1ccoc1)c1ccc2c(c1)CCC(=O)N2", "stereo": "centres undefined", "percent effect": -4.58}
{"smiles": "CC(Oc1ccccc1C(F)(F)F)C(=O)NCC(=O)N1CCCC1", "stereo": "centres undefined", "percent effect": 3.093}
{"smiles": "Cc1nc(C(Cc2ccsc2)NC(=O)CN2CCOCC2)sc1C", "stereo": "centres undefined", "percent effect": -0.7576}
{"smiles": "CS(=O)(=O)c1cccc(C(N)c2ccccc2)c1", "stereo": "centres undefined", "percent effect": 2.305}
{"smiles": "Cc1ccc(C(=O)Nc2ccc(N3CCC(O)CC3)c(C#N)c2)s1", "percent effect": 2.956}
{"smiles": "Cc1nc(CN2CCO[C@H]3CN(C(=O)c4cscn4)C[C@H]32)cs1", "percent effect": 4.372}
{"smiles": "CC(C)CNC(=O)c1nc(COc2ccc3c(c2)OCO3)no1", "percent effect": 0.9901}
{"smiles": "CC(=O)N1CCN(C(=O)c2cnn(-c3ccccc3Cl)c2)CC1", "percent effect": 3.008}
{"smiles": "COc1ccc(C2(NCc3noc(C4CC4)n3)CCOCC2)cc1", "percent effect": 2.105}
{"smiles": "Cc1cnc2n(c1=O)C(CC(=O)NCc1ccco1)CS2", "stereo": "centres undefined", "percent effect": 19.6}

6 of the entries, repeated:

| SMILES | percent effect |
|---|---|
| `CCC1CN(Cc2cccc(C(=O)N(C)C)c2)CCN1CCOC` (centres undefined) | 7.345% |
| `CNCC(=O)N[C@H]1CN(c2nc(C)c3c(n2)CCCC3)C[C@@H]1C1CC1` | 0% |
| `COc1ccc(CN2C[C@@H]3CN(Cc4cccnc4)CCO[C@@H]3C2)cc1` | 2.941% |
| `COc1ccc(C2(NCc3noc(C4CC4)n3)CCOCC2)cc1` | 2.105% |
| `CN(CCO)Cc1cc(Cl)ccc1OCC(O)CN1CCCCCC1` (centres undefined) | 38.31% |
| `CC(C)(O)CSCCNC(=O)c1cc(F)ccc1F` | 5.464% |